The list shows a part of the results.
B1: il2ra_site1_1z92_sap_10_mot_c66c727fe7b11027095aa3ef302aaf37_0001_000000167_0001_38_52_H_._d63e40f36b59ff69b19faeb80cde508e_0001_af2_0001_0000200015_0000001_0_0 … (protein)
chain: SVEERLEEAVERNDPELVKEILREALEELGANPEEVENLLRFAHKTAGGDPELLVRLVLKFLSFD
B2: il2ra_site1_1z92_sap_15_mot_HHH_b1_03002_af2_000000136_0001_43_56_H_._0e653a373a1291f8f2a22526f8bd3403_0001_0001_0000100004_0000001_0_0001 (protein)
chain: SSSSSRSEERVEFVIRNIEMLLERGNDRSARWALELAKLLAERNGNPELQKRLEELEEELKSSSS
B3: il2ra_site1_2b5i_normal_mot_22370d59370c406a0c205a431f537cfa_0001_af2_000000141_0001_1_31_H_._HHH_b2_04268_af2_0001_0000200006_0000001_0_af2pred_dldesign_0_af2p … (protein)
chain: SSSSSKEEELEVADVIEELVEKKGLSDDDYAKLSRLAVDLLYKGVSVEEIKERLKKLAEELSSSS
B4: il2ra_site1_2b5i_normal_mot_HHH_b2_04910_000000118_0001_1_19_H_._HHH_b2_07787_af2_0001_0000500010_0000001_0_af2pred_dldesign_0_af2pred (protein)
chain: SSSSRELAERARELFLEANRLKQAGKEEEAKKLLEEALELAREAGCATLARLIELALKQIGSSSS
B5: il2ra_site1_3nfp_normal_mot_HHH_b2_05589_af2_000000178_0001_1_18_H_._HHH_b1_04813_af2_0001_0000400019_0000001_0_af2pred_0001_af2pred (protein)
chain: SSSSDDELRRLNKLEKQVEELAREGDDEEARKILEEAIELAEELGDELALKFLEFLESRLSSSSS
B6: il2ra_site1_3nfp_sap_16_mot_HHH_b2_04910_af2_000000236_0001_1_18_H_._HHH_b1_03309_0001_0000300020_0000001_0_0001_af2pred_0001_af2pred_swapped (protein)
chain: SSSSSEESKRVQELFRLAAEALKRGDEEEFERILEELREIAEKRNSPALRRMVEALEKDVSSSSS
B7: il2ra_site1_1z92_normal_mot_0152819cca26c81f8eead0111e16a660_0001_000000247_0001_36_50_H_._HHH_b2_05663_0002_0000400044_0000001_0 (protein)
chain: SSSSSSELAAELAVRIVVEAAGLSPEDEERLEELVKELLEEGVDVEEIIKILDELARRLDSSSSS
B8: il2ra_site2_2erj_sap_17_mot_HHH_b2_05866_000000027_0001_43_57_H_._HHH_b1_01196_af2_0001_0000100002_0000001_0_0001 (protein)
chain: SSSSDEDKRRAEEIFEELEELLKRNDLHEFYRLLVELTHLASKVGDPEILKLLREILELAGSSSS
B9: il2ra_site1_3nfp_sap_19_mot_HHH_b1_01683_000000180_0001_19_35_H_._HHH_b1_01165_af2_0001_0000300010_0000001_0_0001 (protein)
chain: SSSSDVHELLERALELAWEGNPEEARELVEEALELAKELGDESRERYAERALESIKRAHQSSSSS
B10: il2ra_site1_3nfp_normal_mot_HHH_b1_01159_af2_000000075_0001_1_20_H_._HHH_b2_02821_0001_0000900040_0000001_0_af2pred_0001_af2pred (protein)
chain: SSSSDEKEELERLIEEVAEAAKEGNEEELEELLREALKLAQENNDRAAERFLRAALKRVSSSSSS
B11: il2ra_site2_2erj_normal_mot_HHH_b1_04373_af2_000000118_0001_18_33_H_._HHH_b1_01717_0001_0000300026_0000001_0 (protein)
chain: SSSSSSVEERVRELLEEAERLYEEGNLEEVYRLAVEALRLASEHNNDELQQEIAEVVERLSSSSS
B12: il2ra_site1_2b5i_sap_19_mot_HHH_b1_07515_af2_000000276_0001_42_54_H_._HHH_b1_00847_af2_0001_0000700018_0000001_0_0001 (protein)
chain: SSSSDERTREAQRLFREADELDREGDPEEARRVLEQALEIAEEEGSRSLLIMIEWALRQFNSSSS
B13: il2ra_site1_2b5i_sap_8_mot_HHH_b2_01822_000000237_0001_40_54_H_._HHH_b1_03246_0002_0000400018_0000001_0_0001_af2pred_dldesign_0_af2pred (protein)
chain: SSSSSEKEDEIYDLFSEALRLKHQGKKEEAKKLLEEAAKLAKELGNKKLLAEVEYFLKKLSSSSS
B14: il2ra_site2_2erj_sap_22_mot_HHH_b2_08130_000000073_0001_1_17_H_._HHH_b1_02674_0001_0000300003_0000001_0_0001 (protein)
chain: SSSSDVEELLEEIEELLRRGDREEAERLLHEAAELAFERNDFELFTEVVEVAHEIDRLRVSSSSS
B15: il2ra_site2_3nfp_normal_mot_HHH_b1_00660_af2_000000090_0001_40_57_H_._HHH_b1_03317_0001_0000400024_0000001_0_af2pred_0001_af2pred (protein)
chain: SSSSSDEEVREEVEELLEEAKHIEDPEEREKVLRRAALLAYELGDFELFALVLLVIERLRSSSSS
B16: il2ra_site2_3nfp_normal_mot_HHH_b1_00660_af2_000000090_0001_40_57_H_._HHH_b2_02305_af2_0001_0000100001_0000001_0_af2pred_0001_af2pred (protein)
chain: SSSSSEIEEEVEELLEEAKKIDDEEERERVLLKAALIAVEANNYELFALVNRIMERLERNSSSSS
B17: il2ra_site1_3nfp_sap_13_mot_0eddeacbb14b769e73e254714f31e2f9_0001_af2_000000052_0001_37_51_H_._3685a7fc0315cffcf770f862f50b42b9_0001_1_0001_0000400028_0000001_0 … (protein)
chain: SDLEEEVRELIELIKEWAEERNDPTARLFAELLEESARRAEERNDERALRYVLRSARLALRTGSS
B18: il2ra_site2_3nfp_sap_21_mot_HHH_b2_07083_af2_000000083_0001_42_56_H_._HHH_b1_04356_0001_0000200033_0000001_0_0001 (protein)
chain: SDPEHARAALWMAEVYALLHNDEELRETVRELKEELKEAAENNDEEKVERVAEKAAELIEEALES
B19: il2ra_site1_1z92_normal_mot_HHH_b1_01239_000000025_0001_23_39_H_._HHH_b1_03006_0001_0000400024_0000001_0_af2pred_0001_af2pred (protein)
chain: SSSSSDDAEEIAAELFRELARAKDPEEIREVYEEARRELEELNDPVAREDIERYYRAKESSSSSS

What follows are binders tested against il2ra, P01589 (assay: yeast display titration).

Apparent Kd, inactive:
B1 no binding seen
B2 no binding seen
B3 no binding seen
B4 no binding seen
B5 no binding seen
B6 no binding seen
B7 no binding seen
B8 no binding seen
B9 no binding seen
B10 no binding seen
B11 no binding seen
B12 no binding seen
B13 no binding seen
B14 no binding seen
B15 no binding seen
B16 no binding seen
B17 no binding seen
B18 no binding seen
B19 no binding seen

No new results follow: entries from further up.
Apparent Kd, inactive:
B5 no binding seen
B6 no binding seen

— paper PMC10163288
